These results are taken from PMC8036795.

Amino acid sequences for entries named in this document (tags omitted).
UniProt P51449: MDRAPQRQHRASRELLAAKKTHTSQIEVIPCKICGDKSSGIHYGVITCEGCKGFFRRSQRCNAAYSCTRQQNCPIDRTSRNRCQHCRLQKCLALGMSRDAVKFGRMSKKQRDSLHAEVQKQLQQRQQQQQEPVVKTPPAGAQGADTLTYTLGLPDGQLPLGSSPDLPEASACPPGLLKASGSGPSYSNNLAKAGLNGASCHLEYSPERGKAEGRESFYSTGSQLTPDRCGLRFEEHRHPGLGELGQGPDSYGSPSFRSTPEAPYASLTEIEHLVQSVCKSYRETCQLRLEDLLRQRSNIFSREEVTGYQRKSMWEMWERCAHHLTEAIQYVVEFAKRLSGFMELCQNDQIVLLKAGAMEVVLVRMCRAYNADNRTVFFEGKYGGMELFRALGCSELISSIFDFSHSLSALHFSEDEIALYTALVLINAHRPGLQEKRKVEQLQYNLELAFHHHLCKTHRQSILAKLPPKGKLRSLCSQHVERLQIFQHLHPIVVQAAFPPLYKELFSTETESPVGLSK

This assay deals with V5-RORγ (RAR-related orphan receptor gamma) (human) (UniProt P51449). Briefly: co-IP; nuclear extracts of C4-2B cells expressing V5-RORγ; anti-V5 or control IgG antibody-coated magnetic beads, 4 °C overnight; washed 5 times with 50 mM Tris-HCl pH7.5, 200 mM NaCl, 5 mM EDTA, 1% Triton; Western blotting with anti-PBK or RORγ antibody. For orientation: A western blot detects proteins with antibodies after separation by electrophoresis.

These are yes or no findings as the source states them, for the method shown. In cells and extracts the contact can be indirect. Some results given as binding are weak or reduced against the parent protein; the word gives no strength.

B1: PDZ binding kinase (PBK) (protein, UniProt Q96KB5 1-322)
chain: MEGISNFKTPSKLSEKKKSVLCSTPTINIPASPFMQKLGFGTGVNVYLMKRSPRGLSHSPWAVKKINPICNDHYRSVYQKRLMDEAKILKSLHHPNIVGYRAFTEANDGSLCLAMEYGGEKSLNDLIEERYKASQDPFPAAIILKVALNMARGLKYLHQEKKLLHGDIKSSNVVIKGDFETIKICDVGVSLPLDENMTVTDPEACYIGTEPWKPKEAVEENGVITDKADIFAFGLTLWEMMTLSIPHINLSNDDDDEDKTFDESDFDDEAYYAALGTRPPINMEELDESYQKVIELFSVCTNEDPKDRPSAAHIVEALETDV
In the case of B1, the binding entry is on record as “binds”.
